# Results taken from article PMC7819943, “Rice protein-binding microarrays: a tool to detect cis-acting elements near promoter regions in rice”.
# Some of the results follow.
# Target: T1, OsSMF1 (Oryza sativa, UniProt Q6ZLB0 1-436)
# T1 sequence: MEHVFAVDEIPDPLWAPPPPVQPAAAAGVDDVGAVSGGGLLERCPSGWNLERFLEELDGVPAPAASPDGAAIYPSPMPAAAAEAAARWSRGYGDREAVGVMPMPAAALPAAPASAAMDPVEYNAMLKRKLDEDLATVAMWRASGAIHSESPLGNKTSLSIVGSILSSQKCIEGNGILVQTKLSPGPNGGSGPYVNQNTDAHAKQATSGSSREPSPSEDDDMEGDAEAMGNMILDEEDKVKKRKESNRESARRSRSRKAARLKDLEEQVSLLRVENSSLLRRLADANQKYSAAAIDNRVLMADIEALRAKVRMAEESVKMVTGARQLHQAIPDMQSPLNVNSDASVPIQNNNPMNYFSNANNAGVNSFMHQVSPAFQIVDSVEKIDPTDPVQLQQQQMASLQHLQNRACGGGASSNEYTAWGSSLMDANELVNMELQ
# Assay: protein-binding microarray (RPBM); PBS, 2% BSA, 51.3 ng/ul salmon testes DNA, 50 uM zinc acetate, 200 nM TF, 25 C, 1 h; high values mean tight binding
# Details: protein: recombinant; tags: N-terminal polyhistidine and DsRed monomer fusion (pET32a); chain copies: 2; label: CyDye5-dUTP incorporated in the synthesized complementary strand; 3' TTTTT single-stranded linker to array surface; dsDNA, one strand shown
# Procedure, shortened: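 Transcription factors were made in E. coli BL21-CodonPlus as N-terminal fusions to a polyhistidine tag and DsRed, then purified on Ni–NTA. After primer extension with Cy5-dUTP and blocking with 2% BSA, a custom Agilent array was exposed for 1 h at 25 °C to 200 nM protein in PBS, 2% BSA, salmon testes DNA and 50 µM zinc acetate. Washed arrays were scanned on an Axon 4000B, and the binding signal is per-feature fluorescence intensity in arbitrary units.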
row,Sequence,binding signal
1,CTTCTGCACCTTCAGTCATACAATATGTCAAGTCCTATGTCGGAGTCACCTAGTGCAG,3680 fluorescence intensity (a.u.)
2,TAGAAAGGTCGTCCCGCGGCACGTCAACGTTCAAACCAGCCGGAGTCACCTAGTGCAG,5620 fluorescence intensity (a.u.)
3,TTAATTCCATGAATAGCACACCATATACGGTACATGGATCCGGAGTCACCTAGTGCAG,30400 fluorescence intensity (a.u.)
4,CGTTCCAAAATAAGTGCAGTCATGGATATCCATGCCCAGCCGGAGTCACCTAGTGCAG,3360 fluorescence intensity (a.u.)
5,ACCCGCCTTGGATGGGCCACCGACAGAATTAGGATCCTCTCGGAGTCACCTAGTGCAG,4040 fluorescence intensity (a.u.)
6,AATCTTTTGAGCCTAATTACGTCATGATTTGACAATGTGGCGGAGTCACCTAGTGCAG,13700 fluorescence intensity (a.u.)
7,GTTTACTTTAGATCATGTCCTGTCATCGCAGTATAAGGGTCGGAGTCACCTAGTGCAG,4400 fluorescence intensity (a.u.)
8,TCACTCTCTTCATCTCATGAGCATCTCACTCACTCATCTCCGGAGTCACCTAGTGCAG,3200 fluorescence intensity (a.u.)
9,GGTGTGGAACGGAGGGAAGATTAACGTGCCACGCTGCTGCCGGAGTCACCTAGTGCAG,4360 fluorescence intensity (a.u.)
10,GCGAGCAAATTTTCGTGGGGATTAGTATGCGTGTATTTATCGGAGTCACCTAGTGCAG,3240 fluorescence intensity (a.u.)
11,GAGTTGTCAAGGGATGTCATCCCGACGTCAACACGATGGCCGGAGTCACCTAGTGCAG,4620 fluorescence intensity (a.u.)
12,GACAGCTCAACGGAGGTGGTATCCTACGACGATGACATGGCGGAGTCACCTAGTGCAG,6590 fluorescence intensity (a.u.)
13,TTTTAGTTGGTGTGCACGTGTGTACACGTGAGGGCCTGTGCGGAGTCACCTAGTGCAG,7430 fluorescence intensity (a.u.)
14,TGTGTCTGATTGCGGTGTGCGTGTGTCATCCGTGCAATGACGGAGTCACCTAGTGCAG,5030 fluorescence intensity (a.u.)
15,TCTGATTGATGATGACGATGATGGCGGCTGTGCAGCTGAACGGAGTCACCTAGTGCAG,4030 fluorescence intensity (a.u.)
16,TCTTGTAACTAAGCGTATTTGACTGCTGATGCGTGCAATTCGGAGTCACCTAGTGCAG,5040 fluorescence intensity (a.u.)
17,GCCGCTCGCGCGTGCCACGTCGGATAGCTACAGTGCGCGGCGGAGTCACCTAGTGCAG,9570 fluorescence intensity (a.u.)
18,TCCCTCTATTTTGCGTCACTAATATGTGGGTCCTTTACCACGGAGTCACCTAGTGCAG,5320 fluorescence intensity (a.u.)
19,TGATGATGGGGCCTGTCAAATCTTGCCGCCTGACACGGGGCGGAGTCACCTAGTGCAG,3200 fluorescence intensity (a.u.)
20,CCACGTCGAGGCGTTTGTGTCCTATGCAGGGCAAGTAACTCGGAGTCACCTAGTGCAG,18900 fluorescence intensity (a.u.)
21,AGGTTCCGGGAGGGCGGGGTGGAGCACGAGGCGGCGGTGCCGGAGTCACCTAGTGCAG,3560 fluorescence intensity (a.u.)

# Some of the entries so far, with tabs:
row	Sequence	binding signal
15	TCTGATTGATGATGACGATGATGGCGGCTGTGCAGCTGAACGGAGTCACCTAGTGCAG	4030 fluorescence intensity (a.u.)
16	TCTTGTAACTAAGCGTATTTGACTGCTGATGCGTGCAATTCGGAGTCACCTAGTGCAG	5040 fluorescence intensity (a.u.)

# Further entries.

row,Sequence,binding signal
1,GACAAGCTCGGCACCAATCTCCACAGGAGCCGCATCAGGTCGGAGTCACCTAGTGCAG,3420 fluorescence intensity (a.u.)
2,TGGTTACCAATTCCATCACCGAGATCACAGCAGAACTGCCCGGAGTCACCTAGTGCAG,3190 fluorescence intensity (a.u.)
3,GGGAGTCCGTTCCACGTAGTAGTGGACAGCACAGCGACCTCGGAGTCACCTAGTGCAG,3810 fluorescence intensity (a.u.)
4,TTGATAGTTTTGTCAAGGCGCTATGCGTCACGTAAACCATCGGAGTCACCTAGTGCAG,5090 fluorescence intensity (a.u.)
5,GTAGGTTTAAAATTCCAGCTAGTCAGCACCTTCTAAGTTACGGAGTCACCTAGTGCAG,5060 fluorescence intensity (a.u.)
6,GGTAGTCTGAAGCCTGTTGGTTATCCTCCTGGGAGTGTTGCGGAGTCACCTAGTGCAG,3220 fluorescence intensity (a.u.)
7,GCGGCGTCGGTGCGGCGGCGGAGGCCATGGCGTTTGTTCTCGGAGTCACCTAGTGCAG,23000 fluorescence intensity (a.u.)
8,AAACAATTACAAATGTTTAGCTGACATACAAGAACTGGACCGGAGTCACCTAGTGCAG,5700 fluorescence intensity (a.u.)
9,GGATGATATGATTAACAGGATGTTATGCAGGCTGTAGATCCGGAGTCACCTAGTGCAG,27200 fluorescence intensity (a.u.)
10,AGCTAGGTGACGATGGACTGACGACGACATGGATGGACAGCGGAGTCACCTAGTGCAG,3320 fluorescence intensity (a.u.)
11,GCCGCCTCCGCCTCCGCCTCGCGCCGTCGCCGCCACTTCCCGGAGTCACCTAGTGCAG,3160 fluorescence intensity (a.u.)
12,TCGTCGTGTCGACGTCCAGGGCATCGACGACACCAATCCACGGAGTCACCTAGTGCAG,3440 fluorescence intensity (a.u.)
13,TCGAGGTGGATTATTTTATATCATTTGACTCACTAATTTCCGGAGTCACCTAGTGCAG,5490 fluorescence intensity (a.u.)
14,ATCATCATCGGCTTGTCAATCATATCATCATCGTTCATTTCGGAGTCACCTAGTGCAG,32300 fluorescence intensity (a.u.)
15,TCACCAGCGTCCGGTCAGCCATGGCGCTGAGTGGCCTCTTCGGAGTCACCTAGTGCAG,21000 fluorescence intensity (a.u.)
16,TTTTATAAATCTCGAATCGATATAAAAGAAAATTGAGGACCGGAGTCACCTAGTGCAG,24700 fluorescence intensity (a.u.)
17,CGTTATCGCGCCCACGCTGCAGCCGATCACGCACGTGGAGCGGAGTCACCTAGTGCAG,3480 fluorescence intensity (a.u.)
18,TCTTGATTCCTGACGTAGCAGAGACACTAGACAGACACGCCGGAGTCACCTAGTGCAG,5640 fluorescence intensity (a.u.)
19,GCCCAGCCTGCCAACCTCACATCCCGTCATCGAGATTCGCCGGAGTCACCTAGTGCAG,4530 fluorescence intensity (a.u.)
20,GGTAGGCCCAACCACGCGGCATCCCCTCCATTATGGGCCCCGGAGTCACCTAGTGCAG,4120 fluorescence intensity (a.u.)
21,GAAAGCTAGAAGAGAAATTGACCTGGATTGAGTTTTGTGCCGGAGTCACCTAGTGCAG,4170 fluorescence intensity (a.u.)
